Measured values taken from patent US9951373B2, “Oplophorus-derived luciferases, novel coelenterazine substrates, and methods of use” (Promega Corporation, priority 2010, dated 2018).

Test: Auto-luminescence characterization of coelenterazines
Conditions: 20 μM substrate on HEK293 cells, no luciferase; normalized to native coelenterazine

First: O=c1c(Cc2ccc(O)cc2)nc2c(Cc3ccccc3)[nH]c(-c3ccccc3)cn1-2 [PBI-3840, 8-benzyl-2-(4-hydroxybenzyl)-6-phenylimidazo[1,2-a]pyrazin-3(7H)-one]
Second: CC(C)c1[nH]c(-c2ccccc2)cn2c(=O)c(Cc3ccc(O)cc3)nc1-2 [PBI-3841]
The “Autolum (norm to coel)” value of the first is higher: 0.2 for the first, 0.1 for the second.

`O=c1c(Cc2cccs2)nc2c(Cc3ccccc3)[nH]c(-c3ccccc3)cn1-2` [PBI-3889, 8-benzyl-6-phenyl-2-(thiophen-2-ylmethyl)imidazo[1,2-a]pyrazin-3(7H)-one] and `O=c1c(Cc2ccc(O)cc2)nc2c[nH]c(-c3ccccc3)cn1-2` [PBI-3894] are the same in “Autolum (norm to coel)” value: 0.2 for the first, 0.2 for the second.

`Cc1[nH]c(-c2ccccc2)cn2c(=O)c(Cc3ccc(O)cc3)nc1-2` [PBI-3896, 2-(4-hydroxybenzyl)-8-methyl-6-phenylimidazo[1,2-a]pyrazin-3(7H)-one] and `O=c1c(Cc2ccc(O)cc2)nc2c(C3CC3)[nH]c(-c3ccccc3)cn1-2` [PBI-3897, 8-cyclopropyl-2-(4-hydroxybenzyl)-6-phenylimidazo[1,2-a]pyrazin-3(7H)-one] are the same in “Autolum (norm to coel)” value: 0.1 for the first, 0.1 for the second.

First: CCc1nc2c(Cc3ccccc3)[nH]c(-c3ccccc3)cn-2c1=O [PBI-3925, 8-benzyl-2-ethyl-6-phenylimidazo[1,2-a]pyrazin-3(7H)-one]
Second: Cc1nc2c(Cc3ccccc3)[nH]c(-c3ccccc3)cn-2c1=O [PBI-3932, 8-benzyl-2-methyl-6-phenylimidazo[1,2-a]pyrazin-3(7H)-one]
The “Autolum (norm to coel)” value of the first is higher: 0.2 for the first, 0.1 for the second.

Compared with `O=c1c(Cc2ccco2)nc2c(Cc3ccccc3)[nH]c(-c3ccccc3)cn1-2` [PBI-3939, 8-benzyl-2-(furan-2-ylmethyl)-6-phenylimidazo[1,2-a]pyrazin-3(7H)-one], `O=c1c(Cc2ccco2)nc2c(Cc3ccccc3)[nH]c(-c3ccc(O)cc3)cn1-2` [PBI-3945] is higher in “Autolum (norm to coel)” value: 0.2 for the first, 0.5 for the second.

Going from `O=c1c(Cc2cccs2)nc2c(Cc3ccccc3)[nH]c(-c3ccc(O)cc3)cn1-2` [PBI-4002] to `O=c1c(Cc2ccccc2)nc2c(Cc3ccccc3)[nH]c(-c3ccccc3)cn1-2` [coelenterazine-hh, bisdeoxycoelenterazine, reference compound], the “Autolum (norm to coel)” value falls from 0.6 to 0.3.

Compared with `Oc1ccc(Cc2nc3c(Cc4ccccc4)nc(-c4ccc(O)cc4)cn3c2O)cc1` [native coelenterazine, coelenterazine], coelenterazine-h [reference compound] is higher in “Autolum (norm to coel)” value: 1 for the first, 1.2 for the second.
